Assay results: patent EP2511272B1, “Synthetic analogues of abscisic acid with anti-inflammatory and insulin release stimulation effects on human cells” (Universita' degli Studi di Genova, priority 2011, dated 2012)
At least one compound was matched to its structure with a doubt left.

Target: T1, ABA receptor (Homo sapiens, UniProt Q9NS86)
T1 construct: endogenous in cells; host or cells: human granulocytes (intact cells)
T1 sequence (Q9NS86 1-450): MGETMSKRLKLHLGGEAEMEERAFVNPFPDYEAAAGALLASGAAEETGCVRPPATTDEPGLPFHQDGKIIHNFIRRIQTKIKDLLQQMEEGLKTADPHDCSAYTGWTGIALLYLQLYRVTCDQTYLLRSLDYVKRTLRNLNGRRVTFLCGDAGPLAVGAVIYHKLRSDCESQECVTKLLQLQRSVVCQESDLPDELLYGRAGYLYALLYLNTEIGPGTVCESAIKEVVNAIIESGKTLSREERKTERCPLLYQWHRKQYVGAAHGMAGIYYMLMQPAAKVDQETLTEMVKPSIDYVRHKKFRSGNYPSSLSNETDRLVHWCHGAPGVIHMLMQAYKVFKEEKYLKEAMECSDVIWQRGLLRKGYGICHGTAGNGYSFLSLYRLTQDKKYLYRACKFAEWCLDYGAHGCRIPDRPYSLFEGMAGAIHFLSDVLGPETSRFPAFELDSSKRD
Test: Competition binding with [^3H]-ABA on human granulocytes
Conditions: 10 nM [^3H]-ABA
Description: Human granulocytes (7 x 10^6 per point), after ON incubation in complete DMEM/F12, were incubated in triplicate at 25 °C for 60 min in 100 µl of HBSS spiked with glucose 10 mM in the presence either of an excess of unlabeled ABA (1 mM) (in order to determine the non-specific binding rate) or of increasing concentrations of compound prepared according to example 1 (from 0,01 nM up to 100 µM). To each compound, 10 nM of [^3H]-ABA (GE Healthcare) with specific activity of 98,000 cpm/pmole were added. At the end of incubation, the cells were centrifuged for 30 sec at […], the supernatant was removed and discarded, and the pellet was washed once wih an excess of HBSS in ice, and centrifuged for 30 sec at 17,000xg. The pellet was resuspended in 200 µl of de-ionized water and radioactivity of cells was determined after addition of scintillation cocktail in a β counter.
Specific binding was computed as the difference between the total binding of [^3H]-ABA in the cells and the binding of [^3H]-ABA in the presence of an excess of unlabeled ABA (1 mM) (non-specific binding).
The experiment was carried out five times in triplicate.

CC(=C/C(=O)O)/C=C/C1(O)C(C)(C)CC(=O)C2OC21C (stereo not drawn) [Example 1, 2'α,3'α-dihydro-2'α,3'α-epoxyabscisic acid]
Bound [^3H]ABA (fmol/mg)±SD (compound 0.01 nM): 51 ± 7 fmol/mg | Bound [^3H]ABA (fmol/mg)±SD (compound 0.1 nM): 43 ± 4 fmol/mg | Bound [^3H]ABA (fmol/mg)±SD (compound 1 nM): 28 ± 3 fmol/mg | Bound [^3H]ABA (fmol/mg)±SD (compound 10 nM): 12 ± 2 fmol/mg | Bound [^3H]ABA (fmol/mg)±SD (compound 100 nM): 10 ± 1 fmol/mg | Bound [^3H]ABA (fmol/mg)±SD (compound 1 µM): 7 ± 2 fmol/mg | Bound [^3H]ABA (fmol/mg)±SD (compound 100 µM): 7 ± 2 fmol/mg
